This note sets out measurements from PubChem BioAssay AID493014 (National Center for Advancing Translational Sciences (NCATS), 2011).

The list shows a part of the results. Further columns of the screen follow, without active or inactive calls. Most of these compounds were active or inconclusive in the main read-out, so they are no random draw. Potencies come from curve fits of mixed quality, noted in brackets.

As usually defined, the AC50 is the concentration giving half of the maximal activity seen.

The assay is described as follows: qHTS Assay to Find Inhibitors of Chronic Active B-Cell Receptor Signaling. As to conditions: ABC-DLBCL IkBa-CBG/CBR reporter, luminescence ratio (green luciferase fused to IkBa over red control in TMD8 lymphoma cells), 4 h. In short, it runs like this:
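Doxycycline induced both beetle luciferases in TMD8 lymphoma cells; IKK-driven degradation limits the IkappaBalpha-fused green signal, while red luminescence normalises for cell number and nonspecific effects. Compounds tested up to 46 uM, 4 hrs.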
For orientation: Quantitative high-throughput screening tests each substance at several concentrations.

Setting [1] is: measured here: CBR red luminescence, cell number.
The mark [2] stands for this setting: measured here: IkBa-CBG green luminescence.

`O=C1CCC(C(=O)O)N1` (stereo not given): under setting [1], the AC50 is 4.47 µM [rising, partial curve, poor fit]. On the same count and under the same terms, the same measure for `COC(=O)CCCC(=O)N1CCC(n2nccc2NC(=O)CCOc2ccccc2)CC1`: 14.1 µM [falling, partial curve, poor fit]; for `COc1ccc(NC(=S)NCCSc2ccc(Cl)cc2)c(OC)c1`: 16.4 µM [falling, partial curve]. The same measure, in the same setting: the figure for `COc1ccc(-c2coc3cc(OC)cc(O)c3c2=O)cc1` is 1.12 µM [rising, full curve]; for `Cc1ccc2c(COC(=O)c3ccccc3Cl)cc(=O)oc2c1` it is 0.794 µM [rising, full curve, poor fit]. Same read-out and setting: the same measure for `O=C(COC(=O)CNC(=O)c1ccco1)Nc1ccc(Cl)cn1`: 0.651 µM [falling, full curve, poor fit]; for `CC(C)[C@@H]1NC(=O)c2cc([N+](=O)[O-])cc(I)c2NCCC[C@@H](C(N)=O)NC(=O)[C@H](CO)NC1=O`: 0.461 µM [rising, full curve, poor fit]. Regarding `O=C(Cn1nc([N+](=O)[O-])nc1Br)NC(c1ccccc1)c1ccccc1`, the AC50 under setting [1] is 18.4 µM [falling, partial curve, poor fit].

Take `CCC12CCCN3CCc4c(n(c5ccccc45)C(O)(C(=O)OC)C1)C32` (stereo not given): the AC50 under setting [1] is 14.1 µM [falling, single point]. Still for that read-out and setting: the same measure for `C=CCN(c1ccccc1)S(=O)(=O)c1cccc(C(=O)O)c1`: 3.66 µM [rising, partial curve, poor fit].

As for `O=C(Nc1nnc(/C=C/c2ccccc2)s1)c1ccco1`, the AC50 under setting [1] was 0.447 µM [rising, full curve, poor fit]. `COc1ccccc1-n1cc(CN2CCN(C3CCCCC3)C(CCO)C2)cn1` (stereo not given): under setting [1], the AC50 was 4.47 µM [rising, partial curve, poor fit]. Consider `COc1ccc(S(=O)(=O)N2CCOCC2)cc1NC(=O)COc1ccc(C)cc1`, for which the AC50 under setting [1] is 0.82 µM [rising, full curve, poor fit]. For the molecule `O=C(NCCNc1ccc2ccccc2c1)c1cccn2c(=O)c3sccc3nc12`, the AC50 under setting [1] is 3.16 µM [falling, full curve, poor fit]. The same measure, in the same setting: the same measure for `Cc1ccc(NC(=O)Cn2cccc2)c(C)c1`: 2.31 µM [rising, full curve, poor fit]; for `COc1cc(/C=N/NC(=O)c2ccc3nc[nH]c3c2)ccc1O`: 5.62 µM [falling, full curve, poor fit]; for `Cc1cccc(NC(=O)c2cccnc2Cl)n1`: 10 µM [falling, partial curve]. Still for that read-out and setting: the figure for `CCN(C[C@H]1N[C@@](CC)(C(=O)OC)[C@H]2C(=O)N(Cc3ccccc3)C(=O)[C@@H]12)S(=O)(=O)c1ccc(OC(F)(F)F)cc1` is 9.2 µM [falling, partial curve, poor fit]; for `Cc1nn(-c2cc(N3CCOCC3)ccc2[N+](=O)[O-])c(=O)c2ccccc12` it is 29.1 µM [rising, single point]. Consider `c1ccc2c(-c3csc(-c4ccncc4)n3)c[nH]c2c1`, for which the AC50 was 15.8 µM [falling, single point] under setting [1] and 10 µM [falling, partial curve] under setting [2]. `O=C1NCC(O)=C1C=Nc1ccccc1O`: the AC50 under setting [1] was 35.5 µM [falling, single point]. On the same count and under the same terms, the figure for `C=CCN1C(=O)C2(OCCO2)c2cc(C)ccc21` is 0.1 µM [rising, full curve, poor fit].

Consider `CS(=O)(=O)Nc1ccc(C(=O)Nc2ccc3c(c2)OCO3)cc1`, for which the AC50 under setting [1] was 20 µM [falling, single point]. Same read-out and setting: the same measure for `CC(=O)Nc1ccc(C2=CC(=O)CC(C)(C)C2)cc1`: 14.6 µM [rising, partial curve, poor fit]; for `CSc1ccccc1NC(=O)CN(C)S(=O)(=O)c1ccc(F)cc1`: 25.9 µM [rising, single point].

Consider `COc1ccccc1Nc1ncccc1[N+](=O)[O-]`, for which the AC50 under setting [1] is 12.6 µM [falling, partial curve]. The same measure, in the same setting: the same measure for `COc1ccc(CNC(=O)c2ccc3c(c2)N(C)CCS3)cc1`: 15.8 µM [falling, partial curve, poor fit]; for `O=C(Nc1ccc2nc3n(c(=O)c2c1)CCCCC3)c1ccccc1Cl`: 17.8 µM [falling, partial curve, poor fit]; for `CCCN(CCC)CCNC(=O)C1CC(=O)N(c2ccc(OC)cc2)C1c1ccc(OC)cc1` (stereo not given): 6.31 µM [rising, single point].

With `O=C(CCNS(=O)(=O)/C=C/c1ccccc1)NCCc1c[nH]c2ccccc12`, the AC50 under setting [1] is 20 µM [falling, partial curve, poor fit]. Consider `NNc1nc2ccccc2c(=O)n1Cc1ccccc1`, for which the AC50 under setting [1] is 11.2 µM [falling, partial curve]. In the case of `CCc1nc(SCc2nc3ccccc3[nH]2)c2oc3ccccc3c2n1`, the AC50 under setting [1] is 6.51 µM [falling, single point]. For the molecule `O=C1CCN(S(=O)(=O)c2ccccc2)CCN1CCOCc1ccc(C(F)(F)F)cc1`, the AC50 under setting [1] was 35.5 µM [falling, single point]. As for `Cc1cc(SCC(=O)c2cccs2)nc2ccccc12`, the AC50 under setting [1] is 23.1 µM [falling, single point]. On the same count and under the same terms, the same measure for `O=C(/C=C/Nc1ccccc1Oc1ccccc1)c1ccco1`: 15.8 µM [falling, partial curve, poor fit]. Still for that read-out and setting: the figure for `Cc1ccccc1-n1c(C)cc(/C=N/NC(=O)c2ccncc2)c1C` is 35.5 µM [falling, single point]. In the case of `O=C(N/N=C/C(Br)=C\c1ccccc1)c1n[nH]c2c1CCC2`, the AC50 is, setting by setting: under setting [1], 6.51 µM [rising, partial curve, poor fit]; under setting [2], 0.291 µM [falling, full curve]. For the molecule `CCOc1ccc(C(=O)NC(C)(C)CC)cc1`, the AC50 under setting [1] was 22.4 µM [rising, single point].

Consider `COc1cc(N)c(Cl)cc1C(=O)OCC(=O)NCc1cccs1`, for which the AC50 under setting [1] was 25.9 µM [rising, single point]. Regarding `CC(C)CN(C(=O)COC(=O)C(C)N1C(=O)c2ccccc2C1=O)c1c(N)n(Cc2ccccc2)c(=O)[nH]c1=O` (stereo not given), the AC50 under setting [1] was 1.64 µM [rising, partial curve, poor fit]. Same read-out and setting: the same measure for `COc1ccc(-c2c(C#Cc3ccc(N(C)C)cc3)c3ccccc3n2C)cc1`: 13 µM [rising, partial curve].

For the molecule `CN(C)S(=O)(=O)n1cc(/C=C(\NC(=O)c2ccccc2Cl)C(=O)N2CCCC2)c2ccccc21`, the AC50 under setting [1] was 3.16 µM [falling, partial curve, poor fit]. In the case of `CSc1ncccc1C(=O)Nc1nc2c(C)cccc2s1`, under setting [1], the AC50 was 8.2 µM [falling, partial curve, poor fit]. On the same count and under the same terms, the same measure for `O=C(Cc1ccccc1)Nc1cccc([N+](=O)[O-])c1`: 6.31 µM [rising, full curve, poor fit]; for `CCOc1ccccc1/C=C/c1onc(C)c1S(=O)(=O)N1CCC(C(=O)N2CCCCC2)CC1`: 1.41 µM [rising, full curve, poor fit]; for `COC(=O)c1sc(NC(=O)c2ccncc2)nc1C`: 11.2 µM [falling, partial curve]. Still for that read-out and setting: the same measure for `C/C(=N\NC(=O)C1(C)NC(C)(C)Cc2ccccc21)c1ccccc1` (stereo not given): 35.5 µM [falling, partial curve, poor fit]; for `CCN1CCN(CCCCOc2ccccc2F)CC1`: 14.6 µM [rising, single point]; for `CCCCOc1ccc(-c2nc(=S)[nH][nH]2)cc1`: 1.64 µM [falling, partial curve, poor fit].

Take `COC(=O)c1ccc(Oc2nc(SC)nc(N(C)C)n2)cc1`: the AC50 under setting [1] was 3.55 µM [falling, partial curve, poor fit]. On the same count and under the same terms, the same measure for `O=S(=O)(Nc1nc2ccccc2nc1N1CCc2ccccc2C1)c1ccc(Br)cc1`: 11.6 µM [falling, partial curve, poor fit]. In the case of `O=C(/C=C/NNC(=O)c1ccccc1)c1ccccc1`, the AC50 under setting [1] was 5.8 µM [falling, partial curve]. In the case of `O=[N+]([O-])c1ccc(NC(=S)NCc2ccncc2)cc1`, under setting [1], the AC50 is 0.631 µM [rising, full curve, poor fit].

Consider `O=C(COc1cccnc1[N+](=O)[O-])Nc1ncc(Cl)cc1Cl`, for which, under setting [1], the AC50 is 2.59 µM [rising, partial curve, poor fit].

In the case of `O=C1CC(c2ccco2)Cc2c1cnn2-c1nc2ccccc2s1` (stereo not given), the AC50 under setting [1] was 29.1 µM [rising, single point]. Same read-out and setting: the same measure for `Oc1ccc(/C=C/c2nc(-c3ccccc3O)n(-c3ccccc3)n2)cc1`: 11.2 µM [falling, partial curve, poor fit]; for `Cc1ccc(C2=NN(CCC(=O)NCCc3cccc(C)c3)C(=O)CC2)cc1`: 35.5 µM [falling, single point]. For `CN(CC(=O)Nc1ccccc1Sc1ccccc1)Cc1nc2ccccc2c(=O)[nH]1`, the AC50 under setting [1] was 1 µM [rising, full curve, poor fit].

For the molecule `O=C(CSc1nnc(-c2c[nH]c3ccccc23)o1)c1ccc(-c2ccccc2)cc1`, under setting [1], the AC50 is 18.4 µM [rising, single point].

On to `Cc1nnc(SCC(=O)NCc2cccs2)n1-c1ccccc1`, for which the AC50 under setting [1] was 0.517 µM [rising, full curve, poor fit]. Same read-out and setting: the figure for `c1c2c(cc3sc(N4CCOCC4)nc13)OCCO2` is 7.31 µM [falling, partial curve, poor fit]. The same measure, in the same setting: the same measure for `COc1ccc(-c2csc(NC(=O)Nc3ccccc3)n2)cc1`: 0.1 µM [rising, full curve, poor fit]; for `CCOc1ccc(Br)cc1S(=O)(=O)Nc1ccc(C(=O)OC(C)C(=O)N(C)c2ccccc2)cc1` (stereo not given): 9.2 µM [falling, partial curve].
